{"source": "patent US20120101257A1", "about": "(UNIVERSITE DE MONTREAL, priority 2009, published 2012)", "key": {"[1]": {"assay": "general procedure: Fmoc solid-phase peptide synthesis; Rink amide resin; Rink amide MBHA resin", "conditions": "whole synthesis"}, "[2]": {"assay": "general procedure: Fmoc solid-phase peptide synthesis; SynPhase lantern", "conditions": "whole synthesis, analytical RP-HPLC (UV 214), formic acid salt (crude: TFA salt)"}, "[3]": {"assay": "general procedure: Fmoc solid-phase peptide synthesis; polystyrene Rink amide lantern", "conditions": "whole synthesis"}, "[4]": {"assay": "general procedure: Fmoc solid-phase peptide synthesis; Rink amide MBHA resin", "conditions": "whole synthesis, analytical RP-HPLC (UV 214), formic acid salt (crude: TFA salt); run 1"}, "[5]": {"assay": "general procedure: Fmoc solid-phase peptide synthesis; Rink-amide SynPhase lantern", "conditions": "whole synthesis, analytical RP-HPLC (UV 214), formic acid salt (crude: TFA salt); run 1"}, "[6]": {"conditions": "214 nm, formic acid salt (crude: TFA salt)"}, "[7]": {"conditions": "formic acid salt (crude: TFA salt)"}, "[8]": {"conditions": "on resin and lantern loading, formic acid salt (crude: TFA salt)"}, "[9]": {"conditions": "214 nm, formic acid salt (crude: TFA salt), cyclic, sequence written open"}, "[10]": {"conditions": "UV 214, formic acid salt (crude: TFA salt), cyclic, sequence written open"}, "[11]": {"conditions": "analytical RP-HPLC (UV 214), formic acid salt (crude: TFA salt), cyclic, sequence written open"}, "[12]": {"conditions": "formic acid salt (crude: TFA salt), cyclic, sequence written open"}}}
{"substance": "(R)-Agl-(R)-Agl-D-Thr-D-Val-D-Glu-D-Leu-D-Ala-NH2", "values": [{"measurement": "final HPLC purity", "setting": "[1]; [6]", "value": ">65", "unit": "%"}, {"measurement": "difficulty met", "setting": "[1]; [7]", "value": "The addition of a second (R)-Agl residue presented a more difficult challenge than the first"}, {"measurement": "isolated yield", "setting": "[1]; [8]", "value": 5, "unit": "%"}, {"measurement": "crude HPLC purity", "setting": "[2]", "value": 45, "unit": "%"}]}
{"substance": "(R)-Agl-D-Tyr-D-Thr-(R)-Agl-D-Glu-D-Leu-D-Ala-NH2", "values": [{"measurement": "final HPLC purity", "setting": "[1]; [6]", "value": ">99", "unit": "%"}, {"measurement": "difficulty met", "setting": "[1]; [7]", "value": "The addition of a second (R)-Agl residue presented a more difficult challenge than the first"}, {"measurement": "isolated yield", "setting": "[1]; [8]", "value": 5, "unit": "%"}, {"measurement": "crude HPLC purity", "setting": "[2]", "value": 30, "unit": "%"}]}
{"substance": "(R)-Agl-D-Tyr-D-Thr-D-Pro-D-Glu-D-Leu-D-Ala-NH2", "values": [{"measurement": "final HPLC purity", "setting": "[1]; [6]", "value": ">95", "unit": "%"}, {"measurement": "isolated yield", "setting": "[1]; [8]", "value": 10, "unit": "%"}, {"measurement": "crude HPLC purity", "setting": "[2]", "value": 55, "unit": "%"}]}
{"substance": "(R)-Agl-D-Tyr-D-Thr-D-Val-(R)-Agl-D-Leu-D-Ala-NH2", "values": [{"measurement": "crude HPLC purity", "setting": "[3]; UV 214, formic acid salt (crude: TFA salt)", "value": 30, "unit": "%"}]}
{"substance": "D-Arg-D-Tyr-(S)-Agl-D-Val-D-Glu-D-Leu-D-Ala-NH2", "values": [{"measurement": "crude HPLC purity", "setting": "[4]", "value": 33, "unit": "%"}, {"measurement": "crude HPLC purity", "setting": "[5]", "value": 32, "unit": "%"}, {"measurement": "crude HPLC purity", "setting": "[1]; [6]", "value": 32, "unit": "%"}, {"measurement": "final HPLC purity", "setting": "[1]; [6]", "value": ">99", "unit": "%"}, {"measurement": "isolated yield", "setting": "[1]; [8]", "value": 15, "unit": "%"}]}
{"substance": "D-Arg-D-Tyr-Agl(4-OH)-D-Val-D-Glu-D-Leu-D-Ala-NH2", "values": [{"measurement": "crude HPLC purity", "setting": "[3]; UV 214, TFA salt", "value": 50, "unit": "%"}]}
{"substance": "His-D-Trp-(R)-Bgl-Trp-D-Phe-Lys-NH2", "values": [{"measurement": "final HPLC purity", "setting": "[1]; [9]", "value": ">99", "unit": "%"}, {"measurement": "crude HPLC purity", "setting": "[1]; 214 nm, formic acid salt (crude: TFA salt), cyclic, sequence written open, run 1", "value": 22, "unit": "%"}, {"measurement": "crude HPLC purity", "setting": "[1]; 214 nm, formic acid salt (crude: TFA salt), cyclic, sequence written open, run 2", "value": 21, "unit": "%"}, {"measurement": "crude purity (method not given)", "setting": "[1]; analytical RP-HPLC (UV 214), formic acid salt (crude: TFA salt), cyclic, sequence written open, run 1", "value": "<10", "unit": "%"}, {"measurement": "crude purity (method not given)", "setting": "[1]; analytical RP-HPLC (UV 214), formic acid salt (crude: TFA salt), cyclic, sequence written open, run 2", "value": 21, "unit": "%"}, {"measurement": "isolated yield", "setting": "[1]; formic acid salt (crude: TFA salt), cyclic, sequence written open, run 1", "value": 7.9, "unit": "%"}, {"measurement": "isolated yield", "setting": "[1]; formic acid salt (crude: TFA salt), cyclic, sequence written open, run 2", "value": 8, "unit": "%"}]}
{"substance": "His-D-Trp-(S)-Agl-Trp-D-Phe-Lys-NH2", "values": [{"measurement": "final HPLC purity", "setting": "[1]; [10]", "value": ">99", "unit": "%"}, {"measurement": "crude HPLC purity", "setting": "[1]; [11]", "value": 22, "unit": "%"}, {"measurement": "isolated yield", "setting": "[1]; [12]", "value": 11, "unit": "%"}]}
{"substance": "His-D-Trp-(S)-Bgl-Trp-D-Phe-Lys-NH2", "values": [{"measurement": "crude HPLC purity", "setting": "[1]; [10]", "value": 46, "unit": "%"}, {"measurement": "final HPLC purity", "setting": "[1]; [10]", "value": ">99", "unit": "%"}, {"measurement": "isolated yield", "setting": "[1]; [12]", "value": 25, "unit": "%"}]}
{"substance": "His-D-Trp-Ala-(R)-Agl-D-Phe-Lys-NH2", "values": [{"measurement": "final HPLC purity", "setting": "[1]; [9]", "value": ">99", "unit": "%"}, {"measurement": "crude HPLC purity", "setting": "[1]; [11]", "value": 61, "unit": "%"}, {"measurement": "isolated yield", "setting": "[1]; [12]", "value": 11, "unit": "%"}]}
{"substance": "His-D-Trp-Ala-(R)-Bgl-D-Phe-Lys-NH2", "values": [{"measurement": "crude HPLC purity", "setting": "[1]; [9]", "value": 40, "unit": "%"}, {"measurement": "final HPLC purity", "setting": "[1]; [9]", "value": ">99", "unit": "%"}, {"measurement": "isolated yield", "setting": "[1]; [12]", "value": 5, "unit": "%"}]}
{"substance": "His-D-Trp-Ala-(S)-Agl-D-Phe-Lys-NH2", "values": [{"measurement": "final HPLC purity", "setting": "[1]; [10]", "value": ">99", "unit": "%"}, {"measurement": "crude HPLC purity", "setting": "[1]; [11]", "value": 66, "unit": "%"}, {"measurement": "isolated yield", "setting": "[1]; [12]", "value": 11, "unit": "%"}]}
{"substance": "His-D-Trp-Ala-(S)-Bgl-D-Phe-Lys-NH2", "values": [{"measurement": "crude HPLC purity", "setting": "[1]; [10]", "value": 52, "unit": "%"}, {"measurement": "final HPLC purity", "setting": "[1]; [10]", "value": ">99", "unit": "%"}, {"measurement": "isolated yield", "setting": "[1]; [12]", "value": 6, "unit": "%"}]}
{"substance": "His-D-Trp-Ala-Trp-(R)-Agl-Lys-NH2", "values": [{"measurement": "final HPLC purity", "setting": "[1]; [9]", "value": ">99", "unit": "%"}, {"measurement": "crude HPLC purity", "setting": "[1]; [11]", "value": 55, "unit": "%"}, {"measurement": "isolated yield", "setting": "[1]; [12]", "value": 7, "unit": "%"}]}
{"substance": "His-D-Trp-Ala-Trp-(R)-Bgl-Lys-NH2", "values": [{"measurement": "crude HPLC purity", "setting": "[1]; [9]", "value": 60, "unit": "%"}, {"measurement": "final HPLC purity", "setting": "[1]; [9]", "value": ">99", "unit": "%"}, {"measurement": "isolated yield", "setting": "[1]; [12]", "value": 3, "unit": "%"}]}
{"substance": "His-D-Trp-Ala-Trp-(S)-Agl-Lys-NH2", "values": [{"measurement": "final HPLC purity", "setting": "[1]; [10]", "value": ">99", "unit": "%"}, {"measurement": "crude HPLC purity", "setting": "[1]; [11]", "value": 44, "unit": "%"}, {"measurement": "isolated yield", "setting": "[1]; [12]", "value": 13, "unit": "%"}]}
{"substance": "His-D-Trp-Ala-Trp-(S)-Bgl-Lys-NH2", "values": [{"measurement": "crude HPLC purity", "setting": "[1]; [10]", "value": 92, "unit": "%"}, {"measurement": "final HPLC purity", "setting": "[1]; [10]", "value": ">99", "unit": "%"}, {"measurement": "isolated yield", "setting": "[1]; [12]", "value": 5, "unit": "%"}]}
